EC50 data for one molecule are collected here from patent US20250268876A1, “TREATMENT OF HIDRADENITIS SUPPURATIVA WITH ORISMILAST” (UNION THERAPEUTICS A/S, priority 2021, published 2025).

The assay relates to TNF-α secretion from human whole blood. Briefly: Whole blood TNF-α secretion assay (LPS or SEB). The format is cell-based. The following applies: SEB 1 μg/mL, donor 2.

What is called EC50 is the midpoint of the concentration-response curve. Higher therefore signals a need for much substance. Take `C[C@@H]1CCN(C(=O)CC#N)C[C@@H]1N(C)c1ncnc2[nH]ccc12` [Tofacitinib]: the EC50 is, setting by setting: (24 h) 8.3 µM; (48 h) 1.45 µM.
